# Reference: PMC3572085
# Amino acid sequences for entries named in this document (tags omitted). A change or cut given only in a name is not applied to a line headed by its entry.
# UniProt P97784: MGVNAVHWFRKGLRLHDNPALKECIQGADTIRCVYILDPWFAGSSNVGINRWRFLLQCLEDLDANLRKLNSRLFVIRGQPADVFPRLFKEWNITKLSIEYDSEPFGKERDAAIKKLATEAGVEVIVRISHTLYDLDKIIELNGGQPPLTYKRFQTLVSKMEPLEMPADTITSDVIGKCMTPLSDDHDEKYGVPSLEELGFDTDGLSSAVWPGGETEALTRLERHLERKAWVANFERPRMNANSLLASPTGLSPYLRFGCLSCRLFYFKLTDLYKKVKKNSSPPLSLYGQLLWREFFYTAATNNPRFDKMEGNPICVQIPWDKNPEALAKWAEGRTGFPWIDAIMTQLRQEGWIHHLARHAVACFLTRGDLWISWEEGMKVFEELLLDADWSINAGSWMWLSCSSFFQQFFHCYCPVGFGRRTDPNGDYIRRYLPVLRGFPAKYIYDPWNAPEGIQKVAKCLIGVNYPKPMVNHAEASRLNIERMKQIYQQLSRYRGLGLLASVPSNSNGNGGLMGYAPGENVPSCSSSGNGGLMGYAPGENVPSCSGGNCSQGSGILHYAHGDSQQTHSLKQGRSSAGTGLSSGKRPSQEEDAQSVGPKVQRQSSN
# Legend:
# [1] = molecular target: T1, l-TIM-V5, C-terminally V5 tagged full length mouse TIMELESS, TIM(1–1198)-V5 (mouse) (UniProt Q9R1X4); assay: co-IP; COS7 transiently co-expressing l-TIM-V5 and HA-CRY1 (wild type or mutant); IP anti-V5, blot anti-HA
# T1 sequence: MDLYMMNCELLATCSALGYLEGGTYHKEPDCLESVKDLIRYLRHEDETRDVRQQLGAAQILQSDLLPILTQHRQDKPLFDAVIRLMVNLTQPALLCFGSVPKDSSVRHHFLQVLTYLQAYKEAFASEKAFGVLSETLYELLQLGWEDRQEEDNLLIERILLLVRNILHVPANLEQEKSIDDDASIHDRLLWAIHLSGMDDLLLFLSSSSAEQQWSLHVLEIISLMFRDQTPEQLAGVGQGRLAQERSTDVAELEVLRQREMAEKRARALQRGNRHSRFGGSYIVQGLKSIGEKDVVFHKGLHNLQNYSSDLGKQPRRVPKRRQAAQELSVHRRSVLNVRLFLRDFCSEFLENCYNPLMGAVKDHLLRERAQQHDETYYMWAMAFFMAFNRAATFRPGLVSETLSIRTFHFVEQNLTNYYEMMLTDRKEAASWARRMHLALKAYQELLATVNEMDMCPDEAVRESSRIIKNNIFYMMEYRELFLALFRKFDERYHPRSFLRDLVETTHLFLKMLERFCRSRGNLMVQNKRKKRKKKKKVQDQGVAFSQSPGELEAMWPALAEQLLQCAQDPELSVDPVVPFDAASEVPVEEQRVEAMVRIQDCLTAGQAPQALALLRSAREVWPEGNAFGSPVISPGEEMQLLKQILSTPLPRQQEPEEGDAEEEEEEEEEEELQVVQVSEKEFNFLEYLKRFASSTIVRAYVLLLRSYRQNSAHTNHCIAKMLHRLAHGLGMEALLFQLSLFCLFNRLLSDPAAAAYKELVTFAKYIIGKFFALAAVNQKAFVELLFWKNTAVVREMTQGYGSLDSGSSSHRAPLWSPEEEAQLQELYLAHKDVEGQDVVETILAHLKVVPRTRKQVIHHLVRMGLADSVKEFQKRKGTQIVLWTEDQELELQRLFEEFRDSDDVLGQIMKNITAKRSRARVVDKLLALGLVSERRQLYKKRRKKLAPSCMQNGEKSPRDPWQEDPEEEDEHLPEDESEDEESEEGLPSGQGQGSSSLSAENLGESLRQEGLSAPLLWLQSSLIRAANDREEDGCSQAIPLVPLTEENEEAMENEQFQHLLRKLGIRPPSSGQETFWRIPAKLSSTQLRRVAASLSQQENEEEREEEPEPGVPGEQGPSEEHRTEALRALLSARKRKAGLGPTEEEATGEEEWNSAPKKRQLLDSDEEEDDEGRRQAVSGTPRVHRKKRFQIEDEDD
# [2] = molecular target: T1, l-TIM-V5, C-terminally V5 tagged full length mouse TIMELESS, TIM(1–1198)-V5 (mouse); assay: co-IP; COS7 co-expressing all three of HA-CRY1 (WT or mutNLSc), l-TIM-V5 and PER2-GFP; IP of each with anti-HA, anti-V5 or anti-GFP, blots with the corresponding antibodies
binding [1],Substance,binding [2]
no binding,HA-CRY1dCC (CRY1 lacking the C-terminal coiled-coil domain) (from UniProt P97784),
binds,HA-CRY1mutNLSc (CRY1 with a mutated C-terminal NLS) (from UniProt P97784),no binding (only with co-expressed PER2-GFP)

# These are yes or no findings as the source states them, for the method shown. Binding seen in cells or lysates may run through a third protein. For part of these data: A result given as binding can be weak or reduced; the word gives no strength. Sequences can lack the tags named with a protein.
